# Test results published in patent publication US20040029889A1, “Heteroaryl alkyl piperazine derivatives as fatty acid oxidation inhibitors” (priority 2000, published 2004).
# At least one compound was matched to its structure with a doubt left.
# Tested on: mitochondrial fatty acid oxidation using palmitoyl CoA as substrate
# Test: Palmitoyl CoA oxidation in isolated rat heart mitochondria
# Assay type: biochemical
# Details: 100 μm compound; 1-C14 palmitoyl CoA substrate; 15 min at 30° C.; vs DMSO control
# Procedure: Rat heart mitochondria were isolated by the method of Nedergard and Cannon (Methods in Enzymol. 55, 3, 1979).
# Palmitoyl CoA oxidation—The Palmityl CoA oxidation was carried out in a total volume of 100 micro liters containing the following agents: 110 mM KCl, 33 mM Tris buffer at pH 8, 2 mM KPi, 2 MM MgCl2, 0.1 MM EDTA, 14.7 microM defatted BSA, 0.5 mM malic acid, 13 mM carnitine, 1 mM ADP, 52 micrograms of mitochondrial protein, and 16 microM 1-C14 palmitoyl CoA (Sp. Activity 60 mCi/mmole; 20 microCi/ml, using 5 microliters per assay). The compounds of this invention were added in a DMSO solution at the following concentrations: 100 microM, and 50 microM. In each assay, a DMSO control was used. After 15 min at 30° C., the enzymatic reaction was centrifuged (20,000 g for 1 min), and 70 microliters of the supernatant was added to an activated reverse phase silicic acid column (approximately 0.5 ml of silicic acid). The column was eluted with 2 ml of water, and 0.5 ml of the eluent was used for scintillation counting to determine the amount of C^14 trapped as C^14 bicarbonate ion.
smiles,measurement,value
"Cc1cccc(C)c1NC(=O)CN1CCN(CC(O)COc2cnc3ccccc3n2)CC1 (stereo not shown) [Compound 70, N-(2,6-dimethylphenyl)-2-{4-[2-hydroxy-3-(quinoxalin-2-yloxy)-propyl]-piperazin-1-yl}acetamide]","Inhibition of mitochondrial fatty acid oxidation, % of Control, 100 μm (%)",12%
